{"source": "PubChem BioAssay AID504791 (Drosophila RNAi Screening Center, 2011)", "purpose": "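Factors in Argonaute-based small RNA production and activity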 (primary screen)", "cells": "Drosophila S2-derived reporter cells", "reagents": "long dsRNA against Drosophila genes, about 150-250 ng dsRNA per well (siRNA assay); about 80-120 ng (miRNA assay)", "timing": "about 5 days (siRNA assay); about 4 days (miRNA assay)", "conditions": "copper sulfate induction of reporters: 25 µM (siRNA assay); 200 mM stated (miRNA assay), 1-2 days before reading", "measured": "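Dual luciferase assay: Renilla to firefly signal ratio in each well, scaled to the mean ratio of its plate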", "units": "stable assay Renilla, run 1 in luminescence; stable assay firefly, run 1 in luminescence", "call rule": "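First-pass picks had plate-scaled ratios over 1.5 for the siRNA assay, over 1.6 for the miRNA assay, or under 0.6; two distinct dsRNAs had to score alike on retest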", "note": "The deposit covers about 23,000 reagents; below is an unselected part of those that have a named target and a result. Of all reagents, 199 (0.86%) are marked active. 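Plate-scaled ratios behind the calls are not deposited; printed light signals are raw; many rows marked increased or decreased are still called inactive.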 Names joined by + are all predicted targets of the reagent. The record does not give: the direction of the score."}
{"target":"CG7320 (GeneID 40010)","dsRNA":"DRSC10810","stable assay Renilla, run 1":6479,"stable assay firefly, run 1":3.54e5,"Call":"inactive"}
{"target":"CG6144 (GeneID 34443)","dsRNA":"DRSC02934","stable assay Renilla, run 1":5675,"stable assay firefly, run 1":6.03e5,"Call":"inactive"}
{"target":"nonA-l (GeneID 42026)","dsRNA":"DRSC17017","stable assay Renilla, run 1":7591,"stable assay firefly, run 1":4.01e5,"Call":"inactive"}
{"target":"CG13028 (GeneID 2768967)","dsRNA":"DRSC09908","stable assay Renilla, run 1":6460,"stable assay firefly, run 1":3.16e5,"Call":"inactive"}
{"target":"Setd3 (GeneID 31638)","dsRNA":"DRSC17840","stable assay Renilla, run 1":5124,"stable assay firefly, run 1":3.13e5,"Call":"inactive"}
{"target":"Setd3 (GeneID 31638)","dsRNA":"DRSC18269","stable assay Renilla, run 1":5376,"stable assay firefly, run 1":2.78e5,"Call":"inactive"}
{"target":"CG11454 (GeneID 33175)","dsRNA":"DRSC00310","stable assay Renilla, run 1":13780,"stable assay firefly, run 1":4.65e5,"Call":"inactive"}
{"target":"IFT57 (GeneID 33579)","dsRNA":"DRSC00720","stable assay Renilla, run 1":8166,"stable assay firefly, run 1":4.33e5,"Call":"inactive"}
{"target":"CG10927 (GeneID 37135)","dsRNA":"DRSC06014","stable assay Renilla, run 1":8399,"stable assay firefly, run 1":2.77e5,"Call":"inactive"}
{"target":"scpr-A + scpr-C + scpr-B","dsRNA":"DRSC15715","stable assay Renilla, run 1":6538,"stable assay firefly, run 1":3.15e5,"Call":"inactive"}
{"target":"CR14117 (GeneID 39473)","dsRNA":"DRSC10121","stable assay Renilla, run 1":6955,"stable assay firefly, run 1":4.52e5,"Call":"inactive"}
{"target":"CG12744 (GeneID 36024)","dsRNA":"DRSC06164","stable assay Renilla, run 1":11343,"stable assay firefly, run 1":4.63e5,"Call":"inactive"}
{"target":"CG16758 (GeneID 38315)","dsRNA":"DRSC07984","stable assay Renilla, run 1":6234,"stable assay firefly, run 1":3.79e5,"Call":"inactive"}
{"target":"CG16758 (GeneID 38315)","dsRNA":"DRSC08492","stable assay Renilla, run 1":9783,"stable assay firefly, run 1":3.71e5,"Call":"inactive"}
{"target":"CG32148 (GeneID 251924)","dsRNA":"DRSC09338","stable assay Renilla, run 1":5423,"stable assay firefly, run 1":3.67e5,"Call":"inactive"}
{"target":"CG1840 (GeneID 32150)","dsRNA":"DRSC19806","stable assay Renilla, run 1":7358,"stable assay firefly, run 1":4.49e5,"Call":"inactive"}
{"target":"CG30048 (GeneID 246415)","dsRNA":"DRSC22205","stable assay Renilla, run 1":9163,"stable assay firefly, run 1":5.17e5,"Call":"inactive"}
{"target":"Cyp6a21 (GeneID 36665)","dsRNA":"DRSC07381","stable assay Renilla, run 1":5639,"stable assay firefly, run 1":3.30e5,"Call":"inactive"}
{"target":"Or1a (GeneID 30978)","dsRNA":"DRSC18689","stable assay Renilla, run 1":7118,"stable assay firefly, run 1":4.86e5,"Call":"inactive"}
